The text below walks through data of article PMC9775972.

Protein sequences, listed by entry. Tags and fused reporters are not part of them.
UniProt P35222: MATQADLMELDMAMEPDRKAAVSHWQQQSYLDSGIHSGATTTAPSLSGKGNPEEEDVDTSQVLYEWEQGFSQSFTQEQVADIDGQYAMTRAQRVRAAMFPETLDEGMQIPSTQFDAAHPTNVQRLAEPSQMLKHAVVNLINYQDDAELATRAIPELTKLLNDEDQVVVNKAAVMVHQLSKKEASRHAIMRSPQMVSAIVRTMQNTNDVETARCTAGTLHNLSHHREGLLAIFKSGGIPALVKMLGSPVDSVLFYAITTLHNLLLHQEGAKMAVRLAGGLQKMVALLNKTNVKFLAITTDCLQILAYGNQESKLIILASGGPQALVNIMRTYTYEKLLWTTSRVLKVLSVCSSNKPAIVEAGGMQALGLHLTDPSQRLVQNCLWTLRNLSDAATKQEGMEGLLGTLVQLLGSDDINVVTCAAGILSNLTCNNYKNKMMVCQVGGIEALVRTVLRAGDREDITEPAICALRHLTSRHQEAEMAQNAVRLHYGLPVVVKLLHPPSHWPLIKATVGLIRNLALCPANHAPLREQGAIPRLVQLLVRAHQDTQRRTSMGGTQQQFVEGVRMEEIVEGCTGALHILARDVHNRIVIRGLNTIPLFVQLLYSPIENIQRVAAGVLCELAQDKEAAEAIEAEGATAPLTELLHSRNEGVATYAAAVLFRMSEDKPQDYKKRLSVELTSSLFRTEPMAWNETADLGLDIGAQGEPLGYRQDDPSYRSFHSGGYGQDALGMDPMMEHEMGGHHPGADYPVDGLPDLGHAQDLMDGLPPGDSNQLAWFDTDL
UniProt Q9NQB0: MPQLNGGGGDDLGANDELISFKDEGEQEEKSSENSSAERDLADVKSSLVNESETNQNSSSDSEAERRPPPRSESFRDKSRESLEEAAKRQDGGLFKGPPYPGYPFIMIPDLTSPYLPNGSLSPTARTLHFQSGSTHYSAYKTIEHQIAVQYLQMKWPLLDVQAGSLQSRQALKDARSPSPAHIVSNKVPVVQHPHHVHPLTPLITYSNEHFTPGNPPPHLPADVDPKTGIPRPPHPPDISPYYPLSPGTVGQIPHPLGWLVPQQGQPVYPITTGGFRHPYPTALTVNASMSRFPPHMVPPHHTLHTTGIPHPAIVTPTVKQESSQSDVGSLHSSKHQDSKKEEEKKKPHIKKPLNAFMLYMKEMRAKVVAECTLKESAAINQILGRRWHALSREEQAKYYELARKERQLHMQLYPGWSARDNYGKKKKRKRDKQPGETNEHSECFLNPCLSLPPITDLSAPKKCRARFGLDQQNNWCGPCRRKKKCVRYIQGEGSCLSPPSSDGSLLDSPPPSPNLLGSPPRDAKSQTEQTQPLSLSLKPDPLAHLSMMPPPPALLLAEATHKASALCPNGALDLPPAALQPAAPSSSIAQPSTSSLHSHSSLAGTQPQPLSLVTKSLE
UniProt Q09472: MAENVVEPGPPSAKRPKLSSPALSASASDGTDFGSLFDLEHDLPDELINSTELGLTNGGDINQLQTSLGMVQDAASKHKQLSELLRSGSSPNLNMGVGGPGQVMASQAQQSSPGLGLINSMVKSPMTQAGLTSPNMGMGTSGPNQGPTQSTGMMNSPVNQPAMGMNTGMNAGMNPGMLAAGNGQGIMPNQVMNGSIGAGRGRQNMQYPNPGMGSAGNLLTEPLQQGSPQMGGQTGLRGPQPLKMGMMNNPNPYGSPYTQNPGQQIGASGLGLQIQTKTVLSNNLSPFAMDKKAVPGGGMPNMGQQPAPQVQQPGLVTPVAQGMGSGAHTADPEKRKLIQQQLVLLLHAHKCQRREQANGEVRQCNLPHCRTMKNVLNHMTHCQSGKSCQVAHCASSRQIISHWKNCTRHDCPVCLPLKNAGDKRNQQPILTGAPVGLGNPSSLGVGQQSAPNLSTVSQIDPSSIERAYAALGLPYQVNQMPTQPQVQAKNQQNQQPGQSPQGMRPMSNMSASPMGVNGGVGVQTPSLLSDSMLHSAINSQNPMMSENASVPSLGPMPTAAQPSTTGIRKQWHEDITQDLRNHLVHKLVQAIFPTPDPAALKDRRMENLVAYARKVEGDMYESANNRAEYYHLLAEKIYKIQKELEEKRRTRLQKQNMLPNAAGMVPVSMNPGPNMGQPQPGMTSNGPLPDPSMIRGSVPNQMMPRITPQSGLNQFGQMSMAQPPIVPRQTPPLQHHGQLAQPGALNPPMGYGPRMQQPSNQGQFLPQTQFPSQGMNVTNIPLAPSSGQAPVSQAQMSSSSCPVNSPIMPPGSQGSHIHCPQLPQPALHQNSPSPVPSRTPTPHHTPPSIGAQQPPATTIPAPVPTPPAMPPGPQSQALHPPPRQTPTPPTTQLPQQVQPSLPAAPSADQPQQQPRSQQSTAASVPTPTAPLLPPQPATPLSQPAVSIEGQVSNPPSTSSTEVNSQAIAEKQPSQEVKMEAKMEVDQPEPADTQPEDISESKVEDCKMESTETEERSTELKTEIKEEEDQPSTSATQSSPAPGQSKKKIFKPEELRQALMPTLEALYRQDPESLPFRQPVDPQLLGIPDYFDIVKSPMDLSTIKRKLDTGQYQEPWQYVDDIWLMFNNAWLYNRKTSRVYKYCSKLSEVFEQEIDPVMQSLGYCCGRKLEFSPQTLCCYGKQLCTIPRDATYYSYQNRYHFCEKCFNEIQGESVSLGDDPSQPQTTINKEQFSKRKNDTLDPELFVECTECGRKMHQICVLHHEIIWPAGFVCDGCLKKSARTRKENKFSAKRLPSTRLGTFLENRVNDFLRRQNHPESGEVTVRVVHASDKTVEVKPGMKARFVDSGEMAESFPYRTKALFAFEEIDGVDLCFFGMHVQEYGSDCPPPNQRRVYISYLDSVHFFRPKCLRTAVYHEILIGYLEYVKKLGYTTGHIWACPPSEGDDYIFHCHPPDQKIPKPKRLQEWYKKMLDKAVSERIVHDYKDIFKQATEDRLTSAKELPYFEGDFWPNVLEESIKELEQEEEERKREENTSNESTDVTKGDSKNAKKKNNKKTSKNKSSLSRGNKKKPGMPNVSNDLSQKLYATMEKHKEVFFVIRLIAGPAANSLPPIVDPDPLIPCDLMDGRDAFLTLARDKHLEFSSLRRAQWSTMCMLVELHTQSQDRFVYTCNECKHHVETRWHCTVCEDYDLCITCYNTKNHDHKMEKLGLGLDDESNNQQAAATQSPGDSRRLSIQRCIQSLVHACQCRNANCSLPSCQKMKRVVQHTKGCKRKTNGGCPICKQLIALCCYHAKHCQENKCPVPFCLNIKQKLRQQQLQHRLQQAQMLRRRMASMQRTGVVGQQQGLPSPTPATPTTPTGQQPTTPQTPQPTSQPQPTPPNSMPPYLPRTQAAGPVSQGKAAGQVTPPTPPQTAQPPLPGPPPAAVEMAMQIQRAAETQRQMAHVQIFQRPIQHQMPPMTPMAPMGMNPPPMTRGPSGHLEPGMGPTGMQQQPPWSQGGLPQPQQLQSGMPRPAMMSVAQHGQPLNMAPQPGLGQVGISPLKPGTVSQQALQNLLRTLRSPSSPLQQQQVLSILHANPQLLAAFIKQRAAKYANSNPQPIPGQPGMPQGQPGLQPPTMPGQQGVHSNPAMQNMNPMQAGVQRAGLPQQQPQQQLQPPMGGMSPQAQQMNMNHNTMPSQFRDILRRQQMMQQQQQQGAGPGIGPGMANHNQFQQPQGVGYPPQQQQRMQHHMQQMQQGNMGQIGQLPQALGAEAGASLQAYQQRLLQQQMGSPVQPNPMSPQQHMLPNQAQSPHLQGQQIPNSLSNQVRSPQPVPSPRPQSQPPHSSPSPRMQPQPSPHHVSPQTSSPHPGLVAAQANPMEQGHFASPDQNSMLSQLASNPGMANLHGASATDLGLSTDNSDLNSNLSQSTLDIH

In assay [1] the target is ph-S675-β-catenin (endogenous, HepG2 and Huh6 cells) (human (endogenous in HepG2 and Huh6)) (UniProt P35222). The assay is described as follows: co-IP; extracts of HepG2 and Huh6 cells treated with 5 μM PRI-724; True Blot protocol, Western blot; the precipitating antibody is not told. (In western blotting, separated proteins are transferred to a membrane and probed.)
Assay [2] has the same target. The assay is described as follows: co-IP; extracts of HepG2 and Huh6 cells treated with DMSO (control); True Blot protocol, Western blot; the precipitating antibody is not told.
In assay [3] the target is β-catenin (endogenous, aggressive HBL tumors) (human (endogenous in HBL patient tumors)) (UniProt P35222). The assay is described as follows: co-IP; protein extracts of HBL patient tissue; improved True Blot protocol, IP samples boiled 30 min in loading buffer, Western blot; the precipitating antibody is not told.
The target in assay [4] is TCF4 (endogenous, aggressive HBL tumors) (human (endogenous in HBL patient tumors)) (UniProt Q9NQB0). Put plainly: pull-down; biotinylated DNA oligomer with the TCF4 binding site from CEGRs/ALCDs on streptavidin beads, incubated 4 h with protein extracts of background and tumor regions of HBL; 10 mM Tris-HCl pH 7.5, 100 mM NaCl, 5 mM β-mercaptoethanol, 10% glycerol; eluted with 1% SDS, Western blot for β-catenin, TCF4 and p300.

Results are given in words; binding and its absence hold for the method and conditions named. Binding seen in cells or lysates may run through a third protein. Some results given as binding are weak or reduced against the parent protein; the word gives no strength.

“p300 (endogenous, HepG2 and Huh6 cells) (from UniProt Q09472 1-2414)”: the binding entry in assay [1] is given as “no binding (condition: cells treated with 5 μM PRI-724)”; in assay [2], “binds”.
For the substance “p300 (endogenous, aggressive HBL tumors) (from UniProt Q09472 1-2414)”, the binding entry in assay [3] and in assay [4] was “binds” each time.
